Assay: general procedure: hybrid (solid and solution phase) peptide synthesis; chlorotrityl resin, Rink acid resin and Rink amide resin (preferred); Gly-2-chlorotrityl resin 0.6 meq/g for the fragmen; PyBOP/hydroxybenzotriazole hydrate/diisopropylethyl amine; HBTU/N-methylmorpholi
Conditions: whole synthesis

Row | Substance | crude HPLC purity (HPLC area % (UV at 210 nM)) | crude yield (from resin) | final purity (method not given) (HPLC area % (UV at 210 nM)) | isolated yield (on resin) | crude yield (stoichiometric)
1 | Fmoc-Ala-Val-Ser(OtBu)-Glu(OtBu)-Ile-Gln(Trt)-Leu-Nle-His(Trt)-Asn(Trt)-Leu-Gly-OH | 83A % | 70% yld. from resin | – | – | –
2 | Fmoc-cyclo(Lys-Asp)Lys-Glu(OtBu)-Arg(Pmc)-Val-Asp-OH | – | – | 85A % | 15% yield based on resin | 41% stoich. yield, crude
